As usually defined, the AC50 is the concentration giving half of the maximal activity seen.

The assay is described as follows: qHTS Assay for Lipid Storage Modulators in Drosophila S3 Cells.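 As to cell number change: cells counted by Cell Tracker Red CMTPX staining in the red channel.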 The note with it: BODIPY lipid droplet fluorescence, 18-24 h; for cell number change: measured here: cell count max response, cells fed with added oleic acid. In outline: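 Laser-scanning cytometry quantifies lipid droplet accumulation (500–530 nm total intensity; droplet/cell object ratio) in oleic acid-fed (400 uM added) Drosophila S3 cells treated with a concentration series. 20 uM Triacsin C defined 100% inhibition.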

[1] abbreviates: measured here: lipid fluorescence (Fed channel) AC50, cells fed with added oleic acid.
Setting [2] is: measured here: cell number channel AC50, cells fed with added oleic acid.

SMILES strings stand for the structures. Some of the results follow. These are further read-outs of the screen, such as a control signal, another cell line or another target. No call is given for them. Most of these compounds were active or inconclusive in the main read-out, so they are no random draw. The note in brackets gives the kind of curve behind each potency; many fits are weak.

In the case of `CCN(CC)c1ccc(/C=N/NC(=O)c2cccc(S(=O)(=O)Nc3ccccc3OC)c2)c(O)c1`, the cell number change is -19.3%. The AC50 under setting [1] was 10.3 µM [falling, partial curve, poor fit]. With `CCOC(=O)c1cnc2c(C(=O)OC)cccc2c1NCCN1CCOCC1`, the cell number change was -3.35%. For the same molecule, the AC50 under setting [1] was 20.6 µM [rising, single point].

Take `O=C(Nc1ccc(CN2CCOCC2)cc1)c1cc(Cl)ccc1Cl`: the cell number change amounted to 5.96%. In addition, the AC50 under setting [1] was 29.1 µM [falling, single point]. As to `O=C1NC(=O)N(c2ccccc2)C1=O`, under setting [1], the AC50 was 0.1 µM [rising, full curve, poor fit].

For the molecule `Cc1cc(COc2ccccc2)oc1C(=O)O`, the cell number change was determined as 24.1%. Besides, under setting [2], the AC50 is 2.59 µM [rising, full curve, poor fit].

As to `O=C(CCN1C(=O)S/C(=C\c2cccs2)C1=O)NC1=NCCS1`, the cell number change was 12.2%. Further, the half-maximal activity concentration (AC50) under setting [1] is 29.1 µM [rising, single point].

For `CCCOc1ccc(/C=C/c2c([N+](=O)[O-])c(=O)n(C)c(=O)n2C)cc1`, the cell number change is -13.5%. Under setting [1], the concentration at half-maximal activity (AC50) is 16.4 µM [falling, single point]. On to `C/C(N)=C(/C#N)C(=O)CSc1nc2scc(-c3ccc(F)cc3)c2c(=O)n1C`, for which the cell number change was determined as 1.75%. Moreover, the AC50 under setting [1] is 1.64 µM [rising, partial curve, poor fit]. For the molecule `CCCN1CCN(S(=O)(=O)c2ccc3c(c2)OCCO3)CC1`, the cell number change amounted to 6.02%.

Take `O=C(Cc1cccs1)Nc1ccccc1`: the cell number change worked out at 11.2%. Under setting [2], the AC50 is 7.31 µM [rising, partial curve, poor fit]. The AC50 under setting [1] is 0.58 µM [rising, single point].

With `CCc1nnc(NC(=O)c2cccc(S(=O)(=O)N3CCCCC3)c2)s1`, the cell number change amounted to 5.95%. Besides, the AC50 under setting [1] is 29.1 µM [rising, single point]. `O=C(Nc1ccc(N2CCCC2)cc1)c1ccccc1[N+](=O)[O-]`: the cell number change was -26.7%. For the same molecule, the AC50 under setting [1] is 29.1 µM [rising, single point].

Take `COc1ccc(OC)c(NC(=O)COC(=O)c2ccc(OC)c(S(=O)(=O)N3CCCC3)c2)c1`: the cell number change was 17.3%. Besides, the AC50 under setting [1] was 0.00651 µM [rising, full curve, poor fit]. `O=c1c(Cc2ccc(Cl)cc2)c(O)ccn1Cc1ccccc1`: the cell number change is -18.8%. Further, the AC50 under setting [2] was 2.91 µM [falling, partial curve]. As for `COc1cccc(CNC(=O)Cc2ccc(NC(=O)C3=C(C)OCCS3)cc2)c1`, the cell number change was -41%. The AC50 under setting [2] was 29.1 µM [falling, single point].

Turning to `Cn1c(C(=O)O)c(CC(=O)Nc2ccc3c(c2)OCCO3)c2ccccc21`, the cell number change was 3.45%. In the case of `CC(=O)NC1=C(Nc2ccc(N(C)C)cc2)C(=O)c2ccccc2C1=O`, the cell number change was -13.5%. Moreover, the AC50 under setting [1] is 23.1 µM [falling, single point].

With `CC(C)c1ccc(N2C(=O)CC(NNC(=O)c3ccccc3Cl)C2=O)cc1` (stereo not given), the cell number change was -1.69%. On to `Cc1nn2c(c1-c1ccccc1)N=C(c1ccco1)CC2c1ccccc1` (stereo not given), for which the cell number change amounted to 12%. Besides, the AC50 under setting [1] was 1.84 µM [rising, full curve]. As to `COc1ccc(NCC(O)COc2ccc(C(C)(C)C)cc2)cc1` (stereo not given), the cell number change is -42.3%. Under setting [2], the half-maximal activity concentration (AC50) was 7.31 µM [falling, partial curve, poor fit].

On to `CC(C)(C)N1C(=O)[C@H]2[C@@H](c3ccc(Br)cc3)N3C(=O)N(c4cccc(Cl)c4)C(=O)[C@@]3(C)[C@H]2C1=O`, for which the cell number change was -46.1%. Besides, the half-maximal activity concentration (AC50) under setting [2] is 29.1 µM [falling, single point]. Moreover, the AC50 under setting [1] is 16.4 µM [falling, single point].

As to `Cc1c(Cl)cccc1NC(=S)NN1CCOCC1`, the cell number change is -2.07%. The AC50 under setting [1] is 1.84 µM [falling, partial curve, poor fit].

Regarding `COc1ccc(/C=N/NC(=O)c2cc(-c3cccn3C)n[nH]2)cc1OC`, the cell number change worked out at 8.04%. Under setting [1], the AC50 is 11.6 µM [rising, partial curve]. Turning to `O=C(CN(C(=O)CCC(=O)Nc1nccs1)c1ccc(F)cc1)NCc1ccccc1`, the cell number change is -2.56%. Also, the concentration at half-maximal activity (AC50) under setting [1] was 5.17 µM [rising, single point].

On to `C1=C2C[N+]3(CCCC3)CC2Cc2ccc3ccccc3c21` (stereo not given), for which the cell number change was 18.5%. Besides, the AC50 under setting [1] was 0.651 µM [falling, single point]. Consider `O=C(Nc1ccc(NC(=O)c2ccco2)nc1)c1cccc(F)c1`, for which the cell number change amounted to 19.8%. For the same molecule, the AC50 under setting [1] was 0.58 µM [falling, single point].

For `COc1ccc(S(=O)(=O)N2CCOCC2)cc1NC(=O)CSc1nnc(N)s1`, the AC50 runs as follows: under setting [2], 0.517 µM [rising, full curve]; under setting [1], 1.03 µM [rising, partial curve]. As for `N#Cc1c(SCc2cccc(Cl)c2)sc(C(=O)c2ccccc2)c1N`, the cell number change was 37.6%. Also, the AC50 under setting [2] is 1.46 µM [rising, partial curve, poor fit]. In addition, the AC50 under setting [1] was 3.66 µM [rising, partial curve].

In the case of `Cc1nn(C)cc1S(=O)(=O)N1CCN(c2cccc(Cl)c2)CC1`, the cell number change is 21.8%. Also, under setting [1], the AC50 was 20 µM [rising, partial curve, poor fit]. Take `COc1ccc(Cl)cc1NC(=O)CN(C)C(=O)C1CCN(C(=O)Nc2ccccc2)CC1`: the cell number change came out at 6.22%. On to `N#C/C(=C\c1cn(-c2ccccc2)nc1-c1cc2ccccc2o1)c1nc2ccccc2[nH]1`, for which the cell number change stood at 33%. Besides, the AC50 under setting [2] is 4.11 µM [rising, full curve]. Further, the AC50 under setting [1] was 1.3 µM [rising, partial curve]. With `CC(OC(=O)c1ccc2c(=O)n3c(nc2c1)CCC3)C(=O)NC1CCCCC1C` (stereo not given), the cell number change was -25.2%. Regarding `CCOc1ccc2c(c1)-c1c(ssc1=S)C(C)(C)N2C(=O)CSC1=NCCS1`, the cell number change was -75.3%. For the same molecule, the AC50 under setting [2] is 29.1 µM [falling, single point]. Moreover, the AC50 under setting [1] was 23.1 µM [falling, single point]. On to `CCCCN1C(=O)C(O)=C(C(C)=O)C1c1ccccc1` (stereo not given), for which the cell number change is -45.6%. In addition, under setting [2], the AC50 is 16.4 µM [falling, single point]. For the same molecule, under setting [1], the half-maximal activity concentration (AC50) is 14.6 µM [falling, partial curve]. Take `Cn1ccnc1SCC(=O)n1c2c(c3ccccc31)CCCC2`: the cell number change was -21.8%. Further, the AC50 under setting [1] was 0.58 µM [falling, full curve, poor fit]. As to `CC(C)[C@H](NS(=O)(=O)c1ccccc1)C(=O)OCC(=O)N1N=C(c2ccc(Cl)cc2)CC1c1ccco1` (stereo not given in full), the cell number change was determined as 22.1%. The AC50 under setting [2] is 0.0411 µM [rising, full curve, poor fit]. Besides, the AC50 under setting [1] was 4.61 µM [rising, full curve]. In the case of `Nc1ccccc1C(=O)/C=C/c1ccc2c(c1)OCO2`, under setting [1], the AC50 is 2.91 µM [rising, single point]. As to `COC(=O)c1cc(S(=O)(=O)NCC2CCN(Cc3ccc(F)cc3)CC2)cn1C`, the cell number change was -12.7%. As for `COc1ccc(C(=O)Nc2ccccc2C(=O)N2CCOCC2)cc1Br`, the cell number change was -38.8%. Moreover, under setting [2], the AC50 is 10.3 µM [falling, single point]. Moreover, the AC50 under setting [1] is 13 µM [falling, partial curve, poor fit].

Take `CCN(C(=S)Nc1cccnc1)c1cccc2ccccc12`: the cell number change is -19.1%. As for `CCOC(=O)c1c(C)[nH]c(C(=O)OCCOc2ccccc2C)c1C`, the cell number change was -29%. Under setting [1], the AC50 was 29.1 µM [falling, single point].

On to `CCC(C)C(=O)Nc1cc(C(=O)OC)ccc1C(=O)OC` (stereo not given), for which the cell number change is 30.2%. Besides, under setting [2], the AC50 was 23.1 µM [rising, single point]. Also, under setting [1], the AC50 is 3.66 µM [rising, partial curve]. `Cc1ccc(S(=O)(=O)CCC(=O)NC2CCCC2)cc1`: the cell number change is 22.5%. For `CC1(C)CC(=O)/C(=C(\O)c2ccccc2)C(=NCCc2ccccc2)C1`, the cell number change is 5.56%. Further, the AC50 under setting [1] is 5.8 µM [rising, partial curve]. `Cc1ccc(NC(=O)CN(C)C(=O)CSc2nnc(NC(C)C)s2)cc1`: the cell number change was -50%. Further, under setting [2], the AC50 is 2.06 µM [falling, full curve].

Turning to `CCOc1ccc(-n2ccc(=O)c(C(=O)O)n2)cc1`, the cell number change was -17.2%. Consider `CC(=O)Nc1cn(-c2ccccc2)nc1-c1ccccc1`, for which the cell number change came out at 12.5%. Further, under setting [1], the AC50 is 6.51 µM [falling, single point]. `Cc1cccn2c(=O)c3cc(C(=O)NCC4CCCO4)c(=N)n(CCc4ccccc4)c3nc12` (stereo not given): the cell number change is 5.13%.

`CCOc1ccc(Nc2nnc(Cc3ccc(OC)cc3)c(=O)[nH]2)cc1`: the cell number change was -1.59%. Further, under setting [2], the AC50 is 0.291 µM [falling, full curve]. `Cc1cc(C(=O)COC(=O)C23CC4CC(CC(O)(C4)C2)C3)c(C)n1-c1c(C)n(C)n(-c2ccccc2)c1=O`: the cell number change is -0.137%. Take `COCCn1cnnc1SCC(=O)Nc1ccccc1C(=O)Nc1ccc2c(c1)OCO2`: the cell number change stood at 27.5%. In addition, the AC50 under setting [1] was 10.3 µM [rising, partial curve, poor fit]. As to `Cc1ccc(OCC(=O)NCCC2=CCCCC2)cc1`, the AC50 under setting [1] was 29.1 µM [falling, single point]. Take `COc1ccc[nH]c1=O`: the cell number change was determined as 35.2%. Further, under setting [1], the AC50 is 2.06 µM [falling, partial curve]. For the molecule `CCCCn1c(N)c(N(CC(C)C)C(=O)CN2C(=O)C3CCCCC3C2=O)c(=O)[nH]c1=O` (stereo not given), the cell number change was -50%. Also, the AC50 under setting [2] is 2.06 µM [falling, partial curve, poor fit].

With `COc1ccc(/C=C/C(=O)c2ccc(NC(=O)c3cccs3)cc2)cc1OC`, the AC50 under setting [1] is 18.4 µM [rising, single point]. For `COc1ccc(NC(=O)CC2C(=O)N(c3ccc(Cl)cc3)C(=S)N2CCc2ccccn2)cc1` (stereo not given), the cell number change was -38.7%. The AC50 under setting [2] is 29.1 µM [falling, single point]. `Cc1cccn2cc(-c3ccc(F)cc3)nc12`: the cell number change is -4.95%. Moreover, the AC50 under setting [1] was 29.1 µM [rising, single point].

Regarding `CC(=O)NCCc1ccc(S(=O)(=O)Nc2cccnc2)cc1`, the cell number change is -62.8%. Also, under setting [2], the AC50 is 29.1 µM [falling, single point]. Further, the AC50 under setting [1] was 29.1 µM [falling, single point]. As to `CCOC(=O)N1CCN(S(=O)(=O)c2ccc3c(c2)CC(C)N3C(C)=O)CC1` (stereo not given), the cell number change is 20.2%. For `CC(C)c1cc(C(F)(F)F)n2nc(C(=O)O)cc2n1`, the cell number change was -5.7%. Further, the AC50 under setting [2] is 4.11 µM [falling, partial curve]. Moreover, under setting [1], the half-maximal activity concentration (AC50) is 23.1 µM [falling, partial curve].

For the origin of these results see PubChem BioAssay AID2685 (National Center for Advancing Translational Sciences (NCATS), 2010).
